Measurements published in patent publication US20230242674A1.
No constants are given. Whether binding was seen depends on the method and setting. Some entries that bind do so weakly or less than the wild type.

Sequences of proteins named here, by UniProt entry; tags and fusion partners are left off. A change or cut given only in a name is not applied to a line headed by its entry.
UniProt Q8R0V5: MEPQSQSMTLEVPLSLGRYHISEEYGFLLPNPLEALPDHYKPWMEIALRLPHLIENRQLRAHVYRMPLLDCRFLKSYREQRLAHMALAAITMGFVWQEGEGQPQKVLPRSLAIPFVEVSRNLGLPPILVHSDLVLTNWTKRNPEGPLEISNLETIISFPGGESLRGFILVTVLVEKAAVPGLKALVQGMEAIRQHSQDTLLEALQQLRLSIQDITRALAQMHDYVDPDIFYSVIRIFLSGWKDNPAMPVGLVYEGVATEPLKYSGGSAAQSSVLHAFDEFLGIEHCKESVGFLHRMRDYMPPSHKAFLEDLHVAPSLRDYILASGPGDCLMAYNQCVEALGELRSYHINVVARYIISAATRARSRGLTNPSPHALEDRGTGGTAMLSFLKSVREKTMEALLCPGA
UniProt Q6ZQW0: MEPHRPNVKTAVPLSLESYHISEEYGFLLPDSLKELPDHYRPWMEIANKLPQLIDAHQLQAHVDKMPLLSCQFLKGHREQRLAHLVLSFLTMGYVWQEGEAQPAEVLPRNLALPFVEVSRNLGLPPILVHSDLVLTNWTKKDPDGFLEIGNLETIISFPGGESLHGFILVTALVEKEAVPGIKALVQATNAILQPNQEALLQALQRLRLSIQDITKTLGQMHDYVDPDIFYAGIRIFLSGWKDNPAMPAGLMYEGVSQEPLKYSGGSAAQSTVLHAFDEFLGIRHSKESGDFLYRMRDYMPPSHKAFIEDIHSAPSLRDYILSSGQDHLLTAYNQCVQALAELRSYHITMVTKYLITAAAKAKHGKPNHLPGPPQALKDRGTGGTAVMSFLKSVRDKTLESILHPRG

How the values were obtained:
[1] = target: anti-human IDO2 monoclonal antibody 13-3; assay: competitive ELISA; soluble peptide titrated against 1 µg/ml mAb in solution; competitor: coated recombinant human IDO2 (100 ng); plate-bound mAb detected with anti-mouse IgG Fc HRP and ABTS
[2] = target: anti-human IDO2 monoclonal antibody 18-1; assay: as above
[3] = target: anti-human IDO2 monoclonal antibody 20-10; assay: as above
[4] = target: mouse IDO2 with V5 tag, expressed in T-REx cells (mouse) (UniProt Q8R0V5); assay: Western blot of T-REx cell extracts; HRP secondary antibody, chemiluminescence
[5] = target: recombinant human IDO2 protein (human) (UniProt Q6ZQW0); assay: competitive ELISA, plate coated with recombinant human IDO2, soluble peptide competitor
[6] = target: T1, murine IDO2 epitope peptide (amino acids 331-351 of murine IDO2) (mouse); assay: competitive ELISA, soluble mouse epitope peptide competes with coated recombinant human IDO2
T1 sequence (peptide): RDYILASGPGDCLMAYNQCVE

[7] = target: recombinant human IDO2 protein (human) (UniProt Q6ZQW0); assay: direct ELISA, plate coated with 100 ng recombinant human IDO2, anti-mouse IgG Fc-HRP detection
[8] = target: recombinant human IDO2 protein (human) (UniProt Q6ZQW0); assay: ELISA; plate coated with 100 ng recombinant human IDO2; detection with anti-mouse IgG Fc-specific HRP and ABTS
[9] = target: human IDO2 with V5 tag, expressed in T-REx cells (human) (UniProt Q6ZQW0); assay: Western blot of T-REx cell extracts; HRP secondary antibody, chemiluminescence

Measured: binding

B1: Human Epitope (peptide)
peptide: RDYILSSGQDHLLTAYNQCVQ
binds: [1] | [2] | [3]

B2: murine IDO2 epitope peptide (amino acids 331-351 of murine IDO2) (peptide)
peptide: RDYILASGPGDCLMAYNQCVE
binds: [1] | [2] | [3]

B3: anti-human IDO2 monoclonal antibody 13-3 (antibody, V domains shown)
VH: QVRLQQPGAELVKPGASVKLSCKASGYTFTSYWMHWVKQRPGQGLEWIGEINPSTGRTNYNERFRSKATLTVDKFSTTAYMQFSSLTSEDSAVYYCVGLRFAYWGQGTLVSVSA
VL: DVVMTQTPLSLPVSFGDQVSISCRSSQSLADSYGNTYLSWYLHKPGQSPQLLIYGISNRFSGVPDRFSGSGSGTDFTLKISTIKPEDLGMYYCLQGTHQPLTFGAGTKLELKR
binds: [4] | [5] | [6] | [7] | [8]

B4: anti-human IDO2 monoclonal antibody 20-10 (antibody, V domains shown)
VH: B3 VH
VL: B3 VL
not listed: [1] | [2] | [3]
binds: all other assays above

B5: anti-human IDO2 monoclonal antibody 18-1 (antibody, V domains shown)
VH: B3 VH
VL: B3 VL
binds: [4] | [6]
